Measurements taken from article PMC7864571.

Target: GST-Nsp1 (SARS-CoV-2 Nsp1, expressed in 293T cells) (SARS-CoV-2) (UniProt P0DTD1)
Experiment: affinity purification with mass spectrometry

GANP (germinal center-associated nuclear protein), endogenous (from UniProt O60318 1-1980)
binding: no binding

mRNA export factor/RNA helicase UAP56 (DDX39B), endogenous (from UniProt Q13838 1-428)
binding: binds

B1: THOC3, endogenous (protein, UniProt Q96J01 1-351)
chain: MAVPAAAMGPSALGQSGPGSMAPWCSVSSGPSRYVLGMQELFRGHSKTREFLAHSAKVHSVAWSCDGRRLASGSFDKTASVFLLEKDRLVKENNYRGHGDSVDQLCWHPSNPDLFVTASGDKTIRIWDVRTTKCIATVNTKGENINICWSPDGQTIAVGNKDDVVTFIDAKTHRSKAEEQFKFEVNEISWNNDNNMFFLTNGNGCINILSYPELKPVQSINAHPSNCICIKFDPMGKYFATGSADALVSLWDVDELVCVRCFSRLDWPVRTLSFSHDGKMLASASEDHFIDIAEVETGDKLWEVQCESPTFTVAWHPKRPLLAFACDDKDGKYDSSREAGTVKLFGLPNDS
binding: no binding

These are yes or no findings as the source states them, for the method shown. Binding seen in cells or lysates may run through a third protein. Here binding means that the protein was enriched with, or labelled near, the bait; the list need not be complete. A no says only that the protein was not detected with the bait.
